Data from patent US20180305421A1 (SHIRE HUMAN GENETIC THERAPIES, published 2018).
Results are given in words; binding and its absence hold for the method and conditions named. Some binding calls cover weakened binding; strength is not graded here.

Target: T1, activin (UniProt P08476 311-426)
T1 sequence (looked up): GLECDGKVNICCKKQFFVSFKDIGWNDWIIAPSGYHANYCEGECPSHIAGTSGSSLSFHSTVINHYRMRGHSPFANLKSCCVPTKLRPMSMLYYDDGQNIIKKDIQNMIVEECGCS
Test: Biacore SPR

B1: FS315-GAG3-mFc (Fc fusion)
chain: GNCWLRQAKNGRCQVLYKTELSKEECCSTGRLSTSWTEEDVNDNTLFKWMIFNGGAPNCIPCKETCENVDCGPGKKCRMNKKNKPRCVCAPDCSNITWKGPVCGLDGKTYRNECALLKARCKEQPELEVQYQGRCKKTCRDVFCPGSSTCVVDQTNNAYCVTCNRICPEPASSEQYLCGNDGVTYSSACHLRKATCLLGRSIGLAYEGKCIKAKSCEDIQCTGGKKCLWDFKVGRGRCSLCDELCPDSKSDEPVCASDNATYASECAMKEAACSSGVLLEVKHSGSCNSISEDTEEEEEDEDQDYSFPISSILEWGAPGGGGGAAAAAGGGGGGAPGGGGGAAAAAGGGGGGAPGGGGGAAAAAGGGGGGAPGCKPCICTVPEVSSVFIFPPKPKDVLTITLTPKVTCVVVDISKDDPEVQFSWFVDDVEVHTAQTQPREEQFNSTFRSVSELPIMHQDWLNGKEFKCRVNSAAFPAPIEKTISKTKGRPKAPQVYTIPPPKEQMAKDKVSLTCMITDFFPEDITVEWQWNGQPAENYKNTQPIMDTDGSYFVYSKLNVQKSNWEAGNTFTCSVLHEGLHNHHTEKSLSHSPGK
notes: also called FS315-mFc; FS315-Fc
binding: binds
